This note sets out measurements from publication PMC3251601.

Amino acid sequences for entries named in this document (tags omitted).
UniProt P04792: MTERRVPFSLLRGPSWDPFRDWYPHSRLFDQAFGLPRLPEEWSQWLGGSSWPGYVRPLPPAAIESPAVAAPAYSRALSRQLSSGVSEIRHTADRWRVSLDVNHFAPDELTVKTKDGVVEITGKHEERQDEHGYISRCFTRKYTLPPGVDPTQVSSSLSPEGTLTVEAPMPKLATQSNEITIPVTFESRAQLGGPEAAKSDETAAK
UniProt Q9UBN7: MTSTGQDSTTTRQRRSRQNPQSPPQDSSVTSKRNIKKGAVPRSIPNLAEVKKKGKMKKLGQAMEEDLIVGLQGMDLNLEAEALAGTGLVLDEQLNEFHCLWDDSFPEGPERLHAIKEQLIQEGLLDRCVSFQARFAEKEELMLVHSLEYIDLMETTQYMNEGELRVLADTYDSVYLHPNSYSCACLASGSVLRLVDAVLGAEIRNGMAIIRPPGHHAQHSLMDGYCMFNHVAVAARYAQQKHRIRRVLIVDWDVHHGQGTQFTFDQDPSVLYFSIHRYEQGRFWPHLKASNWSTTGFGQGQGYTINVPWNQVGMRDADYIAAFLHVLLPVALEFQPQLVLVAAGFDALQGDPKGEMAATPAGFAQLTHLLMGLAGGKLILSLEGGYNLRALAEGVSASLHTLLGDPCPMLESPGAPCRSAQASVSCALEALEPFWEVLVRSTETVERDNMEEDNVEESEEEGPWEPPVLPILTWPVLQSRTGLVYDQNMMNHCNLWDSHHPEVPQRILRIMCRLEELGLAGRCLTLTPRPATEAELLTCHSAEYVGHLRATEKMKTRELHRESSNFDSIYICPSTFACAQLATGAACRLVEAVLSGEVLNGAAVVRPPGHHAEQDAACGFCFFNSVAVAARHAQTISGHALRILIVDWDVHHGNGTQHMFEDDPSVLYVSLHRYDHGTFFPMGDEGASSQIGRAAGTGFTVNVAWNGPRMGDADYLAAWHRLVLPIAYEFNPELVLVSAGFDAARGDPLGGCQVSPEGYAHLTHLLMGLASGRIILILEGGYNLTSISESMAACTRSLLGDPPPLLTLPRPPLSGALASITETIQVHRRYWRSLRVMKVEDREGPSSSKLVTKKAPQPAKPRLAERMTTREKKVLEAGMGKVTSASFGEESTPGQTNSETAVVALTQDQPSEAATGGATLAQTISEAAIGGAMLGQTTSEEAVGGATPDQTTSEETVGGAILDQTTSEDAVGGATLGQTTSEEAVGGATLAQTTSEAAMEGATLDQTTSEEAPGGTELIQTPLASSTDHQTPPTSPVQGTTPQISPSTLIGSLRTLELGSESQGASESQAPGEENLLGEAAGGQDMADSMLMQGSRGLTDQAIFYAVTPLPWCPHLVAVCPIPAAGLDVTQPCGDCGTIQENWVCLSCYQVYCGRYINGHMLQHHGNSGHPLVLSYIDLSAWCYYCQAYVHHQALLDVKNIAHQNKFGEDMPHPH
UniProt P52630: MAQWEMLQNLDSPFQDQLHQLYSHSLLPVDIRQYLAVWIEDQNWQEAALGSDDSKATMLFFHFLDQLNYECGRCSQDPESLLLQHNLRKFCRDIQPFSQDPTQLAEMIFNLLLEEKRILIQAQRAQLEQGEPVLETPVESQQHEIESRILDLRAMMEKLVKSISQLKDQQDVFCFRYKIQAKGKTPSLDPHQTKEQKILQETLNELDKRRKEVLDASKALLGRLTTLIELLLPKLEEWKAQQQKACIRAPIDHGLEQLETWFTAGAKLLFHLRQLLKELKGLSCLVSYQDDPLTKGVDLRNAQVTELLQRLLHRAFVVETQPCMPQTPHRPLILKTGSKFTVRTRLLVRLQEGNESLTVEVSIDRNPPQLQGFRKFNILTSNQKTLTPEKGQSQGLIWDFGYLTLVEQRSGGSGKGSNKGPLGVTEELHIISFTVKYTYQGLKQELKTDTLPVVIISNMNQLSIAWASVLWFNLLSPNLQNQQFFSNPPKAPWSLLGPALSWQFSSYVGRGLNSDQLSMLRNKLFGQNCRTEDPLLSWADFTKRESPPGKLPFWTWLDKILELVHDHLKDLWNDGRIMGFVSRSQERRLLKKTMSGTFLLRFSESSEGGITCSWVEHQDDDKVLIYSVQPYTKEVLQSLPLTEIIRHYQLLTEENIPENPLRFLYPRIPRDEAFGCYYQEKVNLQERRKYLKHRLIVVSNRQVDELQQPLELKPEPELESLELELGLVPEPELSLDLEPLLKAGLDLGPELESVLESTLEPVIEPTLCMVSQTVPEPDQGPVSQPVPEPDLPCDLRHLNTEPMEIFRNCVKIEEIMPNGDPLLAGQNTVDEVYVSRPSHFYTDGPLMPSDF

The experiment concerns the target Heat shock protein 27 (Hsp27) (human (endogenous in HeLa)) (UniProt P04792). As to the kind of experiment: co-IP; goat polyclonal anti-Hsp27 antibody (1 h, 4°C) then protein G sepharose, on 2 ml of pooled sepharose CL-6B column fractions of HeLa lysate positive for the tested protein; immunoblot of the eluate. (In general: A western blot detects proteins with antibodies after separation by electrophoresis.)

Results are given in words; binding and its absence hold for the method and conditions named. Binding seen in cells or lysates may run through a third protein. Some binding calls cover weakened binding; strength is not graded here.

Consider “histone deacetylase 6 (HDAC6) (from UniProt Q9UBN7 1-1215)”, for which the binding result is given as “binds”.
Under “signal transducer and activator of transcription 2 (STAT2) (from UniProt P52630 1-851)” stands “binds”.
